Data taken from patent publication US9192596B2, “Self-emulsifying pharmaceutical compositions of rhein or diacerein” (WOCKHARDT RESEARCH CENTRE, priority 2007, dated 2015).
At least one read-out could not be matched to a standard name with certainty. Some compounds share one wording; it may come from a single statement.

Assay: SEDDS technology with other known water insoluble drugs: solubility or percent release
Type: physicochemical
Conditions: formulated using SEDDS technology

**Q.** For CCCCC1=NC2(CCCC2)C(=O)N1Cc1ccc(-c2ccccc2-c2nnn[nH]2)cc1 [irbesartan], which “increase in the solubility or percent release with SEDDS technology” value is on record?
**A.** does not result in any significant increase

**Q.** With O=C1CCc2ccc(OCCCCN3CCN(c4cccc(Cl)c4Cl)CC3)cc2N1 [aripiprazole] as the compound, how does the “increase in the solubility or percent release with SEDDS technology” value read?
**A.** does not result in any significant increase

**Q.** Which “increase in the solubility or percent release with SEDDS technology” value does the source give for CCN(CC)C(=O)/C(C#N)=C/c1cc(O)c(O)c([N+](=O)[O-])c1 [entacapone] here?
**A.** does not result in any significant increase
